The values that follow come from paper PMC3081804.

The chains behind the UniProt entries cited, without tags or fusion partners. Where a name states a change or a piece, a line headed by the entry shows the natural chain unless it says otherwise. A line that says so, or that is headed by a name, gives the form on record, which may keep a tag or linker. Residues count along the entry.
LRP5.WT-MycHis (low density lipoprotein receptor-related protein 5, wild type) (O75197, residues 32-1615): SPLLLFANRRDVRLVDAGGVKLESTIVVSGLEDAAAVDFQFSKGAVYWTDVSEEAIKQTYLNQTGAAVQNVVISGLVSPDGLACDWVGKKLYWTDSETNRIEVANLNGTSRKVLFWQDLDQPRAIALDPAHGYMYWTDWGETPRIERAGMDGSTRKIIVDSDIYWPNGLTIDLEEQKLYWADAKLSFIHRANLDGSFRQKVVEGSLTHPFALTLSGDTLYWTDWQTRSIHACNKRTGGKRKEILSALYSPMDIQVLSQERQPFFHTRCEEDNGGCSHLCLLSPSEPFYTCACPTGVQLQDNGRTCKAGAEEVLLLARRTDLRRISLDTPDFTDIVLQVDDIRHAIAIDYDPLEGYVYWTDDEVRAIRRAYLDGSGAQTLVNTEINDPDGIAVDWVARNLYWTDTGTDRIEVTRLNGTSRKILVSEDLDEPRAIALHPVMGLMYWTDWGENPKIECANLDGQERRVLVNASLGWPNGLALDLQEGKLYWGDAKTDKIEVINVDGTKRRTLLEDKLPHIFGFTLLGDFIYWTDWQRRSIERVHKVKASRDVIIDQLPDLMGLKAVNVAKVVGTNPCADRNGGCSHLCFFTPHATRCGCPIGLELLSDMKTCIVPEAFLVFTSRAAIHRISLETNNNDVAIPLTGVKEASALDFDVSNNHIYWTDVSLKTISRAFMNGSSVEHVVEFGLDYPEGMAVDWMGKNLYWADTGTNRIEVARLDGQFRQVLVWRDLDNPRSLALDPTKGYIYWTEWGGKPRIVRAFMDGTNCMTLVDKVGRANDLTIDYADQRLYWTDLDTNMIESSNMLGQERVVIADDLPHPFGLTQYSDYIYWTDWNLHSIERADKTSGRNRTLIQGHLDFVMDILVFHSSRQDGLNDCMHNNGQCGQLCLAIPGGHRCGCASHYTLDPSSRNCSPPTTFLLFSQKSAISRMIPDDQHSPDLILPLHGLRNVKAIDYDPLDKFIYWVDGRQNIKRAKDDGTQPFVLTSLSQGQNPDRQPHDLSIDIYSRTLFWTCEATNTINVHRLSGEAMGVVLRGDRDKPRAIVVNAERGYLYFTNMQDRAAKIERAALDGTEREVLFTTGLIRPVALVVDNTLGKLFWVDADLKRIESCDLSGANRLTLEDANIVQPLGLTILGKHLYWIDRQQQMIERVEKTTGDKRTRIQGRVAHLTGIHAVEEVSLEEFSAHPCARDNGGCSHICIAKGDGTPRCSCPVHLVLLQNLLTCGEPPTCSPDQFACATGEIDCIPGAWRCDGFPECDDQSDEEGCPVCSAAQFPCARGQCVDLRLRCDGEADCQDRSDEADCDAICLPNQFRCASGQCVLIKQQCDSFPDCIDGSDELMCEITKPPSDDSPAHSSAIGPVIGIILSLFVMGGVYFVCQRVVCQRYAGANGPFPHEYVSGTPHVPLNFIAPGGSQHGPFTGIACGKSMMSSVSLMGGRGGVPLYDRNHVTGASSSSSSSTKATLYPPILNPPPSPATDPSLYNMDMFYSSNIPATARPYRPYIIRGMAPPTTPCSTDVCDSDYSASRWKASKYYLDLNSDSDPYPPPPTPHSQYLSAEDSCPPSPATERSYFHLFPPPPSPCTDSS
LRP5.Q89R-MycHis (O75197, form named): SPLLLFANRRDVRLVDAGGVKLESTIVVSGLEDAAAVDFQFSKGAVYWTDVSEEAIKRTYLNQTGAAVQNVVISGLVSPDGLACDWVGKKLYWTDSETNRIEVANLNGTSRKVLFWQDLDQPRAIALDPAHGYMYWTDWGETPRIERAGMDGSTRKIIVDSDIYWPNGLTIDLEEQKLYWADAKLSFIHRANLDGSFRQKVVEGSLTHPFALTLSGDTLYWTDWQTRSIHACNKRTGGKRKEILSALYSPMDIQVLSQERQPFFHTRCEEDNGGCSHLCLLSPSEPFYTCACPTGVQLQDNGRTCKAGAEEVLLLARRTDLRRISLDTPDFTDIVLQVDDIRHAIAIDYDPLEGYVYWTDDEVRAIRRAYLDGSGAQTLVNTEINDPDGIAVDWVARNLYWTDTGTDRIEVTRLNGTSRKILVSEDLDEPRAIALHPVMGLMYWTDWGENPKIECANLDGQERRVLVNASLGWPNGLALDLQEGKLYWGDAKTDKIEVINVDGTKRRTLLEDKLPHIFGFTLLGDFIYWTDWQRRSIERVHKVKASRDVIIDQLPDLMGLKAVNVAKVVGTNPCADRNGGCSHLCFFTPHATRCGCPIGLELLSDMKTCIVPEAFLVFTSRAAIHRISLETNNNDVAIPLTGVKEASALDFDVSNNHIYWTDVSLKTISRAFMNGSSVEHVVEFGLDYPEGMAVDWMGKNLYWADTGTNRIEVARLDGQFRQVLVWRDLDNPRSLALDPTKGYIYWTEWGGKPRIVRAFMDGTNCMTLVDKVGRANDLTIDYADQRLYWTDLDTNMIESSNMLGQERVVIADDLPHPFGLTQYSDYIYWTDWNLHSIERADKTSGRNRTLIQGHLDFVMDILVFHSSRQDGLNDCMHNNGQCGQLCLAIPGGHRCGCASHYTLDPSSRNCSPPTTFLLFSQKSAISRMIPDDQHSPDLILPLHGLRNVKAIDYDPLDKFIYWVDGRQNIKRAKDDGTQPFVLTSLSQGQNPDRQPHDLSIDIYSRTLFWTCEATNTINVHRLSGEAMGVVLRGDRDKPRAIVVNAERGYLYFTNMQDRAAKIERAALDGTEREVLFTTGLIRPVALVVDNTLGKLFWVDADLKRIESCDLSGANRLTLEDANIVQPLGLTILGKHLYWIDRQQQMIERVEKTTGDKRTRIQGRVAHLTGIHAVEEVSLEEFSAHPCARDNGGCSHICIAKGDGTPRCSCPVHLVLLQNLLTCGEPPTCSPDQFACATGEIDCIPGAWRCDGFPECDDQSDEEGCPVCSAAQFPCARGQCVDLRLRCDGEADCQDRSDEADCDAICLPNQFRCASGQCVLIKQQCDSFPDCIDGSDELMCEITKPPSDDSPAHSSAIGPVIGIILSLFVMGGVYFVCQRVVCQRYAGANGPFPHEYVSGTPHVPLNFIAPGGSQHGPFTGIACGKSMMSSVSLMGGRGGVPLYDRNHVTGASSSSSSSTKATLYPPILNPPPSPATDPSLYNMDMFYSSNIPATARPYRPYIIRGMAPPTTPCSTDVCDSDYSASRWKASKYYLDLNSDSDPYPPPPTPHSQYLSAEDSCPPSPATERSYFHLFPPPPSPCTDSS

These are yes or no findings as the source states them, for the method shown. Binding seen in cells or lysates may run through a third protein. Some entries that bind do so weakly or less than the wild type. Where a sequence is shown, tags or fusion partners need not be part of it.

Test [1] addresses T1, MESD-FLAG (mesoderm development, molecular chaperone) (mouse (from the vector's name mMESD)) (UniProt Q9ERE7).
T1 sequence: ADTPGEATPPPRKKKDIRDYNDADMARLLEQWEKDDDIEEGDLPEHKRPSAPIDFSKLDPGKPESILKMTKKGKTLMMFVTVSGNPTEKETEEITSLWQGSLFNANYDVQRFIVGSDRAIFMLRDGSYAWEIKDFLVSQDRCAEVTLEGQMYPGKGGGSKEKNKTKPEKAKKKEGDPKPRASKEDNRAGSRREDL
Description: co-IP; HEK293T/17 cells co-transfected with LRP5-MycHis and MESD-FLAG; lysate in TBS with 1% Triton X-100; IP with anti-FLAG (M2) and Protein G magnetic particles at 4 °C; blot with anti-cMyc.

The target of test [2] is T1, MESD-FLAG (mesoderm development, molecular chaperone) (mouse (from the vector's name mMESD)). As to the kind of experiment: co-IP; GTM3 cells co-transfected with LRP5-MycHis and MESD-FLAG; lysate in TBS with 1% Triton X-100; IP with anti-FLAG (M2) and Protein G magnetic particles at 4 °C; blot with anti-cMyc.

Take “LRP5.Q89R-MycHis (from UniProt O75197 32-1615) (receptor)”: the binding entry in test [1] and in test [2] was “binds” throughout.

As for “LRP5.WT-MycHis (low density lipoprotein receptor-related protein 5, wild type) (from UniProt O75197 32-1615)”, the binding result in test [1] and in test [2] was “binds” each time.
